These are yes or no findings as the source states them, for the method shown. In cells and extracts the contact can be indirect. Some results given as binding are weak or reduced against the parent protein; the word gives no strength. One block for each molecule: values may come before it.
Assays:
[1] = biological target: Protein disulfide isomerase family A, member 3 (PDIA3) (human (endogenous in T47D, H1299, A549)) (UniProt P30101); test: co-IP; T47D lysates (200 ug), cells exposed or unexposed to DSP; antibody to AGR2, PDIA3 or PDIA6 at 1 ug/ml overnight at 4 °C, Protein G Sepharose; non-specific antibody as control; immunoblot
[2] = biological target: T1, Protein disulfide isomerase family A, member 6 (PDIA6) (human (endogenous in T47D, H1299, A549)) (UniProt Q15084); test: as above
T1 sequence: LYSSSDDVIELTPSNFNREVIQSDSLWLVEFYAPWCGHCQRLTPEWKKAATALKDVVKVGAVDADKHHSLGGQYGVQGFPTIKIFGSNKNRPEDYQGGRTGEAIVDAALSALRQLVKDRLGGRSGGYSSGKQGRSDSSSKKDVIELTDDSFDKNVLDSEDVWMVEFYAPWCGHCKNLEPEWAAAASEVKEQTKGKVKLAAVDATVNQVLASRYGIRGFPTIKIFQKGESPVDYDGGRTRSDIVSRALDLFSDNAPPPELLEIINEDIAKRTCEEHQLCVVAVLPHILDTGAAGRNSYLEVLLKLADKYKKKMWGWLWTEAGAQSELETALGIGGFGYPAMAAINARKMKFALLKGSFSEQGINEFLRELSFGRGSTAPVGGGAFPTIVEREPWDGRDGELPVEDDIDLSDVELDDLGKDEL

By UniProt entry, the sequences of proteins in these tests, tags left out. Where a name states a change or a piece, a line headed by the entry shows the natural chain unless it says otherwise. Residues count along the entry.
UniProt P30101, residues 25-505: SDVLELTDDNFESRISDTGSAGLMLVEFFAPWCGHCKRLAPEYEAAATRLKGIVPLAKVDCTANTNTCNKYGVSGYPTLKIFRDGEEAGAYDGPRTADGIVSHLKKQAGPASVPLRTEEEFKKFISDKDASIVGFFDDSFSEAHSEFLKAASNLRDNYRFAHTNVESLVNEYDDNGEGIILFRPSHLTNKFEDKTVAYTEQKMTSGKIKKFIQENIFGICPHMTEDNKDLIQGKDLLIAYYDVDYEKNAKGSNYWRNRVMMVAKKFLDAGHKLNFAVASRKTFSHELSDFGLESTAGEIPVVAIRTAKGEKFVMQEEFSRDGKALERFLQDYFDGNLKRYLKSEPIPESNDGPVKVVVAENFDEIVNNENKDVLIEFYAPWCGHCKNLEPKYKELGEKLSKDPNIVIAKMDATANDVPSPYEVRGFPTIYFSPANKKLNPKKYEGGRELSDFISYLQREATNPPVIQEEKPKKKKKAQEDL
UniProt O95994, residues 21-175: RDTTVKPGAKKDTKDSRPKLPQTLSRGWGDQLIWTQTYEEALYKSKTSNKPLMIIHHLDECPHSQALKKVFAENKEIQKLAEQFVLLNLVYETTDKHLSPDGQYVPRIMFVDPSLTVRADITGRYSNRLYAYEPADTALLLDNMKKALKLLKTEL

[3] = biological target: T2, E7 peptide (AGR2-specific biotinylated peptide aptamer); test: pull-down; biotinylated E7 peptide on streptavidin-agarose incubated overnight at 4 °C with cell lysate (T47D, or mixed H1299 + H1299-AGR2); washed 6x with PBS-T; AGR2 in the eluates detected by immunoblotting and LC-MS/MS; only the target purified
T2 sequence (peptide, biotin (position not stated)): SGSGPTTIYY

[4] = biological target: Anterior gradient 2 (AGR2), endogenous (human (endogenous in T47D, A549)) (UniProt O95994); test: proximity ligation; fixed and permeabilised cells (T47D, A549, H1299-AGR2); primary antibodies to AGR2 and PDIA3 or PDIA6; Duolink In Situ Red Kit Mouse/Rabbit
[5] = biological target: Anterior gradient 2 (AGR2), stably expressed in H1299-LZ4-AGR2 cells (human) (UniProt O95994); test: as above
[6] = biological target: Anterior gradient 2 (AGR2), endogenous (human (endogenous in T47D, A549)) (UniProt O95994); test: co-IP; A549 and T47D cells untreated or exposed for 16 h to ER stress inducers (tunicamycin, thapsigargin, DTT); lysates, antibody, Protein G Sepharose; immunoblot
[7] = biological target: Anterior gradient 2 (AGR2), endogenous (human (endogenous in T47D, A549)) (UniProt O95994); test: co-IP; T47D lysates (200 ug), cells exposed or unexposed to DSP; antibody to AGR2, PDIA3 or PDIA6 at 1 ug/ml overnight at 4 °C, Protein G Sepharose; non-specific antibody as control; immunoblot

binding [1]: binds
binding [2]: binds
binding [3]: binds
Molecule: Anterior gradient 2 (AGR2), endogenous (from UniProt O95994 21-175)

binding [3]: binds
Molecule: Anterior gradient 2 (AGR2), stably expressed in H1299-LZ4-AGR2 cells (from UniProt O95994 21-175)

binding [4]: binds
binding [5]: binds
binding [6]: binds
binding [7]: binds
Molecule: Protein disulfide isomerase family A, member 3 (PDIA3) (from UniProt P30101 25-505)

binding [4]: binds
binding [5]: binds
binding [7]: binds
B1: Protein disulfide isomerase family A, member 6 (PDIA6) (protein, UniProt Q15084 20-440)
chain: T1 sequence

Reference: paper PMC8816719
